{"source": "paper PMC9440895", "binders": {"B1": {"name": "Activating Transcription Factor 7 Interacting Protein (ATF7IP) (protein, UniProt Q6VMQ6 1-1270)", "chain": "MDSLEEPQKKVFKARKTMRVSDRQQLEAVYKVKEELLKTDVKLLNGNHENGDLDPTSPLENMDYIKDKEEVNGIEEICFDPEGSKAEWKETPCILSVNVKNKQDDDLNCEPLSPHNITPEPVSKLPAEPVSGDPAPGDLDAGDPASGVLASGDSTSGDPTSSEPSSSDAASGDATSGDAPSGDVSPGDATSGDATADDLSSGDPTSSDPIPGEPVPVEPISGDCAADDIASSEITSVDLASGAPASTDPASDDLASGDLSSSELASDDLATGELASDELTSESTFDRTFEPKSVPVCEPVPEIDNIEPSSNKDDDFLEKNGADEKLEQIQSKDSLDEKNKADNNIDANEETLETDDTTICSDRPPENEKKVEEDIITELALGEDAISSSMEIDQGEKNEDETSADLVETINENVIEDNKSENILENTDSMETDEIIPILEKLAPSEDELTCFSKTSLLPIDETNPDLEEKMESSFGSPSKQESSESLPKEAFLVLSDEEDISGEKDESEVISQNETCSPAEVESNEKDNKPEEEEQVIHEDDERPSEKNEFSRRKRSKSEDMDNVQSKRRRYMEEEYEAEFQVKITAKGDINQKLQKVIQWLLEEKLCALQCAVFDKTLAELKTRVEKIECNKRHKTVLTELQAKIARLTKRFEAAKEDLKKRHEHPPNPPVSPGKTVNDVNSNNNMSYRNAGTVRQMLESKRNVSESAPPSFQTPVNTVSSTNLVTPPAVVSSQPKLQTPVTSGSLTATSVLPAPNTATVVATTQVPSGNPQPTISLQPLPVILHVPVAVSSQPQLLQSHPGTLVTNQPSGNVEFISVQSPPTVSGLTKNPVSLPSLPNPTKPNNVPSVPSPSIQRNPTASAAPLGTTLAVQAVPTAHSIVQATRTSLPTVGPSGLYSPSTNRGPIQMKIPISAFSTSSAAEQNSNTTPRIENQTNKTIDASVSKKAADSTSQCGKATGSDSSGVIDLTMDDEESGASQDPKKLNHTPVSTMSSSQPVSRPLQPIQPAPPLQPSGVPTSGPSQTTIHLLPTAPTTVNVTHRPVTQVTTRLPVPRAPANHQVVYTTLPAPPAQAPLRGTVMQAPAVRQVNPQNSVTVRVPQTTTYVVNNGLTLGSTGPQLTVHHRPPQVHTEPPRPVHPAPLPEAPQPQRLPPEAASTSLPQKPHLKLARVQSQNGIVLSWSVLEVDRSCATVDSYHLYAYHEEPSATVPSQWKKIGEVKALPLPMACTLTQFVSGSKYYFAVRAKDIYGRFGPFCDPQSTDVISSTQSS"}}, "target": "T1, SET and MYND domain containing 3 (SMYD3) (human (endogenous in OCI-LY8)) (UniProt Q9H7B4)", "T1 sequence": "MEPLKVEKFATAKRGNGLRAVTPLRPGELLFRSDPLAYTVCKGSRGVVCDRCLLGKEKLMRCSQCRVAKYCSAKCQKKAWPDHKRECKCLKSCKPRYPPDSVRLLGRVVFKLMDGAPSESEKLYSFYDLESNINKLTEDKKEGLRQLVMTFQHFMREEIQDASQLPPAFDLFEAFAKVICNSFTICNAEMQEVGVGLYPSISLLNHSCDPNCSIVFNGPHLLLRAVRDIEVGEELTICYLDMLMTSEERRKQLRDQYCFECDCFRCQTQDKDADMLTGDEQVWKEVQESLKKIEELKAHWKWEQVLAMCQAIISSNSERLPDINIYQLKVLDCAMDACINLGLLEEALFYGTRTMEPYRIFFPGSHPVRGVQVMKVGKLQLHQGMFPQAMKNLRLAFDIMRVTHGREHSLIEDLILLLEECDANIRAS", "experiment": "affinity purification with mass spectrometry; endogenous co-IP with an anti-SMYD3 antibody from OCI-LY8 whole cell lysate (RIPA lysis buffer), protein A/G agarose beads, five washes with PBS, SDS-PAGE, Coomassie-stained bands excised, trypsin, nano-HPLC-MS/MS; IgG as control", "note": "These are yes or no findings as the source states them, for the method shown. In cells and extracts the contact can be indirect. A yes stands for co-enrichment or nearness to the bait. Other partners may have been found.", "data": [{"binder": "B1", "values": [{"measurement": "binding", "value": "binds"}]}]}
